Assay results: patent US20080219971A1
Changes are numbered by the printed parent chain. These are yes or no findings as the source states them, for the method shown. Some entries that bind do so weakly or less than the wild type. For some of these results: Tags and fused reporters may be left off the sequences shown. Values belong to the binder of their own block, whether it stands above or below them.

Columns and labels:
[1] = molecular target: T1, CD100-AP (Homo sapiens (Human)) (UniProt Q92854); assay: blocking of CD100-AP (20 ng) binding to Plexin B1 on 293/Plexin B1 cells after preincubation with the antibody, flow cytometry
T1 sequence: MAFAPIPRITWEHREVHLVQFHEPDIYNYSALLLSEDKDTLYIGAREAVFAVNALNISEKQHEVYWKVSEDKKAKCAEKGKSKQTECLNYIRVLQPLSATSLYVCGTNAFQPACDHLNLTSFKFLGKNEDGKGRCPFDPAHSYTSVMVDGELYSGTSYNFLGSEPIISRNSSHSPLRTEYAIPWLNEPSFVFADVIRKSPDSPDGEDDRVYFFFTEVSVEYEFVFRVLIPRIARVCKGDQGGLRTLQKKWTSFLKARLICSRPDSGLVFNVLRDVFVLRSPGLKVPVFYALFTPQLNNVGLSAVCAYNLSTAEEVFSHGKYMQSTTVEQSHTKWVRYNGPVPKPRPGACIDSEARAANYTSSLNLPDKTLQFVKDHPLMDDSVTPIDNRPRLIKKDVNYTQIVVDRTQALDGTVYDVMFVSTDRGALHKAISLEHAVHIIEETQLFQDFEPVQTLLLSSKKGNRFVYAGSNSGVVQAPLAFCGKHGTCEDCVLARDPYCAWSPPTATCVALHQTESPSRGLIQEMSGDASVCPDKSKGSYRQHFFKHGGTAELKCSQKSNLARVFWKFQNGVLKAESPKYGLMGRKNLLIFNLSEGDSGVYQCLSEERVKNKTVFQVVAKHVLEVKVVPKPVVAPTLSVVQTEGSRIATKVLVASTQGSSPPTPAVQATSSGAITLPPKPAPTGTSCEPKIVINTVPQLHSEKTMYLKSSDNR

human CD100-His (human) = molecular target: T2, human CD100-His (human) (UniProt Q92854); assay: blocking of CD100-His (20 ng) binding to Plexin B1 on 293/Plexin B1 cells after preincubation with the antibody, flow cytometry
T2 sequence (looked up): T1 sequence

human CD100-Fc (human) [2] = molecular target: T3, human CD100-Fc (human) (UniProt Q92854); assay: ELISA
T3 sequence (looked up): T1 sequence

[3] = molecular target: T1, CD100-AP (Homo sapiens (Human)); assay: blocking of CD100-AP binding to Plexin B1 on COS/Plexin B1 cells after preincubation with the antibody, alkaline phosphatase staining; concentration not shown
human CD100-Fc (human) [4] = molecular target: T3, human CD100-Fc (human); assay: ELISA on CD100-Fc antigen
human CD100-Fc (human) [5] = molecular target: T3, human CD100-Fc (human); assay: competition ELISA on coated CD100-Fc; BD16 pre-bound
human CD100-Fc (human) [6] = molecular target: T3, human CD100-Fc (human); assay: competition ELISA on CD100-Fc: BD16 titrated against 5 ng/ml MAb 301, bound MAb 301 detected with anti-human Kappa HRP [FIG. 4B]
human CD100-Fc (human) [7] = molecular target: T3, human CD100-Fc (human); assay: competition ELISA on CD100-Fc: BD16 titrated against 5 ng/ml MAb 657, bound MAb 657 detected with anti-human Kappa HRP [FIG. 4B]

B1: MAb 1808 (antibody, human IgG4, V domains shown)
VH: QVQLVQSGAEVKKPGSSVKVSCKASGYTFTDYYMDWVRQAPGQGLEWMGRVNPYHGGATYNQKFKGRVTITADKSTSTAYMELSSLRSEDTAVYYCAREENSYDGYYGMDYWGQGTLVTVSS
VL: DIVMTQSPLSLPVSPGEPATINCKSSQSLFNSGNQKNYLAWYLQKPGQPPKLLIYGASTRESGVPDRFSGSGSGTDFTLTISSLQAEDVAVYYCQNDHTYPYTFGQGTKLEIK
binding [1]: binds
binding (human CD100-His (human)): binds
binding (human CD100-Fc (human) [2]): binds
binding [3]: binds

B2: MAb 1807 (antibody, human IgG4, V domains shown)
VH: B1 VH with M48I, R67K, V68A, A72V
VL: B1 VL
binding (human CD100-Fc (human) [2]): binds

B4: MAb 1656 (antibody, human IgG1, V domains shown)
VH: B1 VH
VL: B1 VL
binding (human CD100-Fc (human) [2]): binds

B5: MAb 301 (antibody, human IgG1, V domains shown)
VH: EVQLQQSGPELVKPGASVKMSCKASGYTFTDYYMDWVKQSHGESFEWIGRVNPYHGGATYNQKFKGKATLTVDKSSRTAYMELNSLTYEDSAVYYCAREENSYDGYYGMDYWGQGTTVTVSS
VL: DIVLTQSPSSLSVSAGEKVTMDCKSSQSLFNSGNQKNYLAWYHQKPGQPPKLLIYGASTRESGVPDRFTGSGSGTDFTLTISSVQAEDLAVYYCQNDHTYPYTFGGGTKLEIK
binding (human CD100-Fc (human) [2]): binds
binding (human CD100-Fc (human) [4]): binds

Results, then the binder that gave them:

binding (human CD100-Fc (human) [2]): binds
binding (human CD100-Fc (human) [4]): binds
B3: MAb 657 (antibody, human IgG1, V domains shown)
VH: B1 VH with M48I, R67K, V68A, A72V
VL: B1 VL

binding (human CD100-Fc (human) [5]): binds
binding [1]: binds
binding (human CD100-Fc (human) [6]): binds
binding (human CD100-His (human)): binds
binding (human CD100-Fc (human) [7]): binds
binding [3]: binds
B6: BD16 (antibody, V domains shown)
VH: B5 VH
VL: B5 VL
